Laboratory results as given in PMC7447803, “DEPS-1 is required for piRNA-dependent silencing and PIWI condensate organisation in Caenorhabditis elegans” (Nature Communications, 2020).

Target: T1, PRG-1 (endogenous) (C. elegans (endogenous in N2 animals)) (UniProt P90786)
T1 sequence: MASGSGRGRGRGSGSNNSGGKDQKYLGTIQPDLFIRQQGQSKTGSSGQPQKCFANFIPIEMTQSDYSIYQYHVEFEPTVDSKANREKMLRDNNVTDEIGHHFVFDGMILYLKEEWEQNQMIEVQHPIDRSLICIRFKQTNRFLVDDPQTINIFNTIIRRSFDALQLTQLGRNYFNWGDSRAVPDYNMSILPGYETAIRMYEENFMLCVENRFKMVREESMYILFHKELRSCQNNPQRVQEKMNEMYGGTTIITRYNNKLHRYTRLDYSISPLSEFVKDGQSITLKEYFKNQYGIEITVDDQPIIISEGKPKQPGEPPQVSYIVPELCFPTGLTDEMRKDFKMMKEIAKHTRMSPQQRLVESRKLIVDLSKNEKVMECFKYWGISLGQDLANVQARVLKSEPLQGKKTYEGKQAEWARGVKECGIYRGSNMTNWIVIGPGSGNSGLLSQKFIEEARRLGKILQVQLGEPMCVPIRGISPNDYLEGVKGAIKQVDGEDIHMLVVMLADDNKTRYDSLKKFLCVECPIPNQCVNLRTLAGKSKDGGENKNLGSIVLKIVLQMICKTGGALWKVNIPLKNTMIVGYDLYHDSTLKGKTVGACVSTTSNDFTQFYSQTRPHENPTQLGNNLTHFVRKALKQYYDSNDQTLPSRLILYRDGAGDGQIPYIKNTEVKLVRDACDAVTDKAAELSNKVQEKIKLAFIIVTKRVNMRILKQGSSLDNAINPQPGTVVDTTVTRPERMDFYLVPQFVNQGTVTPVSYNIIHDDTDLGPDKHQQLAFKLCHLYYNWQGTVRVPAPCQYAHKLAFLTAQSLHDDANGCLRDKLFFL
Test: affinity purification with mass spectrometry; anti-PRG-1 antibody pre-coupled to protein A/G matrix, incubated 4 h with lysates of N2 adults (20 mM HEPES pH 7.5, 150 mM NaCl, 0.5% NP-40); controls: prg-1(n4357) lysates and rabbit IgG; LC-MS/MS

binding: binds
B1: DEPS-1 (endogenous) (protein, UniProt Q9N303 1-619)
chain: MSERQSKYFDYQGIVISSTGQDNQDSETDLVYLIQAHGKAAPKNIMYGVSKCAFVPTNLERNFDNIEEAKNLERRSKIPLKFGEVILWNESDCDHDKRIILHIKREKPIYEASSSRNGLILKVGGVIQPTSTTSFWTPLCTVTMPETEATRAEPDVWLYAWIRFETTMKSGLDPFNMTATFESFDSCDPSDQARVCEAPWNAGSPDSKFGVWRPDPKPADSDDEIDIEPREGWHLPEDKWAEVIKMQLGLYVGERLLICKELSQFDFIIPLQKPFSRGTDKTLIYPAVGEYFHFSAIWSMQHNGFLIYELQPVPLLRQHVTSVNGNLLTRVVPASIRGLFVDKEGTLGLIDDPHHLLSFFEFHPAGYEFLKAMAEVRAVRTSENKSVRYRIVRTSGMSIFENWLRDTQFVVGPVKGIRINEDTVICAKHPNVYFKIPNNLKEGIPIGGGVQFVGKRQAGVDSEIMITECSPCPAFTCKNYSVSGDTRLFQVYLKPNCDHEQLAESDSMGFVDFRELETPCRGKFLAWVRESITVNDCRRAATIMEVCSTAICPPLIAMSANSSRATSARTTPAGSSIGSRSSIQSRASAATSVSSNRFVGPSSRRTPSGTPQSSTSSRV

These are yes or no findings as the source states them, for the method shown. In cells and extracts the contact can be indirect. A yes stands for co-enrichment or nearness to the bait. Other partners may have been found.
